Experimental findings from patent US10538802B2 (IMMUCOR GTI DIAGNOSTICS, INC., priority 2011, dated 2020) are described below.

Plain letter strings leave the end groups untold.

This data set can be described thus: peptide synthesis. The conditions noted are these: whole synthesis.

B1: … (peptide)
chain: DREKAPNLVYMVTGCPASDEIKRLPGDIQVVPIEVIGWPNAPILIQDFETLPREAPDLVLQR
modifications: FAM fluorophore and TQ2 quencher
Consider B1, for which the “purity (crude or final not stated)” value is listed as 95.5%.
